From the supplement of paper PMC9233669
Variants at the floor of the assay are shown more often than the library holds them.

How the values were obtained:
[1] = test system: biotinyl-Phe-oxazolone; test: self-aminoacylation, catalytic enhancement (BFO) (fold over background); higher = more active; k-Seq, kA / k0A0; sequences stand for … in GGGAAUGGAUCCACAUCUACGAAUUC…UUCACUGCAGACUUGACGAAGCUG
Procedure, shortened: (§1)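 Working in 50 μL HEPES/NaCl/KCl/MgCl2/CaCl2 buffer with 5% acetonitrile at pH 6.9–7.0, mutagenized RNA pools (0.43 μM; 21-nt variable region) were reacted with 2–1250 μM of each biotinyl-aminoacyl-oxazolone for 90 minutes at room temperature. Streptavidin capture followed, with quantification by triplicate qPCR and Illumina sequencing. Catalytic enhancement is reported as median kA over the uncatalyzed rate, the low-activity peak of a bimodal Gaussian fit to the data.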

[2] = test system: biotinyl-Met-oxazolone; test: self-aminoacylation, catalytic enhancement (BMO) (fold over background); higher = more active; k-Seq, kA / k0A0; sequences stand for … in GGGAAUGGAUCCACAUCUACGAAUUC…UUCACUGCAGACUUGACGAAGCUG
Procedure, shortened: as §1

[3] = test system: biotinyl-Trp-oxazolone; test: self-aminoacylation, catalytic enhancement (BWO) (fold over background); higher = more active; k-Seq, kA / k0A0; sequences stand for … in GGGAAUGGAUCCACAUCUACGAAUUC…UUCACUGCAGACUUGACGAAGCUG
Procedure, shortened: as §1

[4] = test system: biotinyl-Leu-oxazolone; test: self-aminoacylation, catalytic enhancement (BLO) (fold over background); higher = more active; k-Seq, kA / k0A0; sequences stand for … in GGGAAUGGAUCCACAUCUACGAAUUC…UUCACUGCAGACUUGACGAAGCUG
Procedure, shortened: as §1

[5] = test system: biotinyl-Val-oxazolone; test: self-aminoacylation, catalytic enhancement (BVO) (fold over background); higher = more active; k-Seq, kA / k0A0; sequences stand for … in GGGAAUGGAUCCACAUCUACGAAUUC…UUCACUGCAGACUUGACGAAGCUG
Procedure, shortened: as §1

[6] = test system: biotinyl-Ile-oxazolone; test: self-aminoacylation, catalytic enhancement (BIO) (fold over background); higher = more active; k-Seq, kA / k0A0; sequences stand for … in GGGAAUGGAUCCACAUCUACGAAUUC…UUCACUGCAGACUUGACGAAGCUG
Procedure, shortened: as §1

Row | Sequence | self-aminoacylation [1] | self-aminoacylation [2] | self-aminoacylation [3] | self-aminoacylation [4] | self-aminoacylation [5] | self-aminoacylation [6]
1 | CGACACUUCAAGCAAUCGGUC [Fam1B.1 aminoacylation ribozyme variant] | 13.4 | 0.972 | 7.38 | 1.1 | 1.15 | 1.08
2 | CGACACUUCUAGCAAUCGGUC [Fam1B.1 aminoacylation ribozyme variant] | 0.793 | 0.692 | 0.893 | 0.84 | 0.794 | 1.04
3 | CGACACUUGAAGCAAUCGGUC [Fam1B.1 aminoacylation ribozyme variant] | 0.979 | 0.968 | 1.35 | 0.985 | 1.13 | 1.21
4 | CGACUUCAAACAAUCCGUCUG [Fam1A.1 aminoacylation ribozyme variant] | 2.5 | 1.23 | 1.72 | 1.07 | 1.18 | 1.27
5 | CGACUUUAAACAAUCGGUCUG [Fam1A.1 aminoacylation ribozyme variant] | 1.76 | 1.36 | 1.37 | 1.1 | 1.04 | 1.04
6 | CGAUACUUCAAGCAAUCGGUC [Fam1B.1 aminoacylation ribozyme variant] | 1.88 | 1.31 | 1.55 | 0.997 | 1.1 | 1.22
7 | CUAAUUCAAACAAUCGGUCCG [Fam1A.1 aminoacylation ribozyme variant] | 0.604 | 0.575 | 0.513 | 0.732 | 0.539 | 0.553
8 | CUAAUUCAAACAAUCGUUCUG [Fam1A.1 aminoacylation ribozyme variant] | 0.632 | 0.483 | 0.45 | 0.449 | 0.559 | 0.528
9 | CUAAUUCCAACAAUCGGUCUG [Fam1A.1 aminoacylation ribozyme variant] | 0.681 | 0.805 | 0.612 | 0.769 | 0.872 | 0.882
10 | CUAAUUCUAACAAUCGGUCUG [Fam1A.1 aminoacylation ribozyme variant] | 0.731 | 0.652 | 0.474 | 0.624 | 0.714 | 0.751
11 | CUACACUUCAAGCAAUCGGCC [Fam1B.1 aminoacylation ribozyme variant] | 6.22 | 1.69 | 5.03 | 2.41 | 1.75 | 1.82
12 | CUACACUUCAAGCGAUCGGUC [Fam1B.1 aminoacylation ribozyme variant] | 1.86 | 0.947 | 1.74 | 0.836 | 0.978 | 1.06
13 | CUACACUUCGAGCAAUCGGUC [Fam1B.1 aminoacylation ribozyme variant] | 1.17 | 0.653 | 0.701 | 0.914 | 0.788 | 0.745
14 | CUACAUCAAGCAAUCGGUCUG [Fam1A.1 aminoacylation ribozyme variant] | 0.956 | 0.695 | 0.762 | 0.909 | 0.807 | 0.834
15 | CUACAUCAGACAAUCGGUCUG [Fam1A.1 aminoacylation ribozyme variant] | 0.86 | 0.886 | 0.678 | 0.792 | 0.997 | 0.765
16 | CUACCUCAAACAACCGGUCUG [Fam1A.1 aminoacylation ribozyme variant] | 1.7 | 0.932 | 1.13 | 1.13 | 1.11 | 1.35
17 | CUACCUCAAACAAUCGGUAUG [Fam1A.1 aminoacylation ribozyme variant] | 1.26 | 0.908 | 1.59 | 0.989 | 0.916 | 1.19
18 | CUACCUGAAACAAUCGGUCUG [Fam1A.1 aminoacylation ribozyme variant] | 0.626 | 0.951 | 0.839 | 0.714 | 0.725 | 0.724
19 | CUACGUCAAACAAUCGGUCUG [Fam1A.1 aminoacylation ribozyme variant] | 1.11 | 0.991 | 1.03 | 0.942 | 1.06 | 0.992
20 | CUACGUCAAACAAUCGGUUUG [Fam1A.1 aminoacylation ribozyme variant] | 0.709 | 1.09 | 1.09 | 1.52 | 1.52 | 1.08
21 | CUACGUCCAACAAUCGGUCUG [Fam1A.1 aminoacylation ribozyme variant] | 1.36 | 0.966 | 1.13 | 1.12 | 1.13 | 1.23
22 | CUACUACAAACAAUCAGUCUG [Fam1A.1 aminoacylation ribozyme variant] | 0.88 | 0.467 | 0.554 | 0.7 | 0.732 | 0.657
23 | CUACUACAAACAGUCGGUCUG [Fam1A.1 aminoacylation ribozyme variant] | 0.75 | 0.838 | 0.521 | 0.866 | 0.803 | 0.786
